Where “and” joins values, the source holds several entries; their conditions need not be identical. Equal values may be shown once.
Legend:
[1] = Galvanostatic cycling of full flow cell vs 4-hydroxy-TEMPO under N2; conditions: for capacity fade rate / capacity retention over the first five cycles: N2; for Coulombic efficiencies: N2, 2 mA cm^−2
[2] = Galvanostatic cycling in air (25 mM and 50 mM full cells); conditions: five cycles in air, 5 mA cm^−2
[3] = Extended galvanostatic cycling flow cell studies at 250 mM
[4] = 10 mM in 100 mM NaCl, 20 mM 4-hydroxy-TEMPO, N2, five charge-discharge cycles, 2 mA cm^−2
[5] = 5 cycles air, 20 mA cm^−2, after the 40 mA cm^−2 step
[6] = air, 30 mA cm^−2 (200 cycles for 11, 100 for 17)
[7] = air, 40 mA cm^−2 (111 cycles for 11, 67 for 17)
[8] = 10 mM in 100 mM NaCl, 20 mM 4-hydroxy-TEMPO

Compound	Coulombic efficiency [1, 4]	capacity upon introduction of air ([2]; 50 mM in 500 mM NaCl)	Coulombic efficiency ([3]; 5 cycles N2, 20 mA cm^−2) [%]	Coulombic efficiency [3, 5] [%]	Coulombic efficiency ([3]; 15 cycles air, 20 mA cm^−2) [%]	Coulombic efficiency [3, 6] [%]	Coulombic efficiency [3, 7] [%]	Coulombic efficiencies [1, 8]	capacity retention over the first five cycles ([1]; 10 mM)	further results
C[N+](C)(C)CCC[n+]1ccc(-c2cc[n+](CCC[N+](C)(C)C)cc2)cc1 [Compound 10]	80.5 ± 0.3%									
C[N+](C)(C)CCC[n+]1ccc(-c2ccc(-c3cc[n+](CCC[N+](C)(C)C)cc3)cc2)cc1 [Compound 11]	77% and 76.8 ± 0.3%	remained almost unchanged	98.87 ± 0.90	94.52 ± 0.50	87.53 ± 0.13	96.64 ± 0.31	93.62 ± 0.46			capacity upon introduction of air ([2]; 25 mM in 500 mM NaCl): fell sharply; initial jump in capacity upon exposure to air ([3]; first 130 cycles): 12.337%; Coulombic efficiency ([1]; 1 mM, N2, 0.2 mA cm^−2): 18%; capacity fade rate ([1]; 5 mM): 9.64 % per cycle; Coulombic efficiency ([1]; 5 mM, N2, 1 mA cm^−2): 74%; capacity fade rate ([1]; 10 mM): 0.01 % per cycle
C[N+](C)(C)CCC[n+]1ccc(-c2ccc3cc(-c4cc[n+](CCC[N+](C)(C)C)cc4)ccc3c2)cc1 [Compound 13]	74.2 ± 2.7%									
C[N+](C)(C)CCC[n+]1ccc(-c2ccc(-c3cc[n+](CCC[N+](C)(C)C)cc3)s2)cc1 [Compound 17]		remained almost unchanged	97.55 ± 0.18	96.78 ± 0.69	96.49 ± 0.71	97.89 ± 1.17	98.59 ± 2.87	78.6±0.3	about 99%	
C[N+](C)(C)CCC[n+]1ccc(-c2ccc(-c3ccc(-c4cc[n+](CCC[N+](C)(C)C)cc4)s3)s2)cc1 [Compound 18]								79.7±2.8	about 92%	

— patent US20260221482A1, “REDOX FLOW BATTERY” (CAMBRIDGE ENTERPRISE LIMITED, priority 2023, published 2026)
